Measured data: PubChem BioAssay AID504784 (Drosophila RNAi Screening Center, 2011)
Purpose: 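Fly genes whose silencing alters how much lipid cells keep in droplets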 (primary screen). Cells: Drosophila Kc167 embryonic cells. Reagent: long dsRNA against Drosophila genes, about 250 ng dsRNA per well. Timing: 4 days. Conditions: cells fed 400 µM oleic acid bound to BSA. Detection: 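Microscope images give a droplet-to-nucleus area ratio, taken as log and converted to a screen-wide B-score; higher values mean greater lipid storage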. Scale: droplet/nuclear area B-score: higher = more stored lipid (overstorage).
The deposit covers about 17,000 reagents; below is an unselected part of those with a known target gene and a result. 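Each column is one replicate's B-score; the combined score over replicates was not deposited, so single values may mislead.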 Names joined by + are all predicted targets of the reagent.

Eato [DRSC01891]
- droplet/nuclear area B-score, replicate 1: 1.65
- droplet/nuclear area B-score, replicate 2: 0.566

Eato [DRSC03061]
- droplet/nuclear area B-score, replicate 1: -0.479
- droplet/nuclear area B-score, replicate 2: 1.12

lectin-29Ca [DRSC02635]
- droplet/nuclear area B-score, replicate 1: -0.729
- droplet/nuclear area B-score, replicate 2: 0.267

CG13482 [DRSC10024]
- droplet/nuclear area B-score, replicate 1: 1.87
- droplet/nuclear area B-score, replicate 2: -0.00588
- droplet/nuclear area B-score, replicate 3: -0.75

RpS5b [DRSC16173]
- droplet/nuclear area B-score, replicate 1: 0.217
- droplet/nuclear area B-score, replicate 2: 0.741

CG34459 [DRSC06973]
- droplet/nuclear area B-score, replicate 1: 0.524
- droplet/nuclear area B-score, replicate 2: -2.04

CG31816 [DRSC01547]
- droplet/nuclear area B-score, replicate 1: -1.24
- droplet/nuclear area B-score, replicate 2: -0.91

Argp [DRSC16510]
- droplet/nuclear area B-score, replicate 1: -0.454
- droplet/nuclear area B-score, replicate 2: -0.0516

Fntb [DRSC15244]
- droplet/nuclear area B-score, replicate 1: -0.524
- droplet/nuclear area B-score, replicate 2: 0.411

Gr59a [DRSC21550]
- droplet/nuclear area B-score, replicate 1: -2.08
- droplet/nuclear area B-score, replicate 2: 0.674

Cpr66Cb [DRSC10769]
- droplet/nuclear area B-score, replicate 1: 0.491
- droplet/nuclear area B-score, replicate 2: 1.99

CG32191 [DRSC10522]
- droplet/nuclear area B-score, replicate 1: 1.74
- droplet/nuclear area B-score, replicate 2: 2.44

Pcif1 [DRSC11655]
- droplet/nuclear area B-score, replicate 1: 0.273
- droplet/nuclear area B-score, replicate 2: 1.12
- droplet/nuclear area B-score, replicate 3: 1.62

per [DRSC18818]
- droplet/nuclear area B-score, replicate 1: -2
- droplet/nuclear area B-score, replicate 2: -0.00698

insv [DRSC00579]
- droplet/nuclear area B-score, replicate 1: -0.0302
- droplet/nuclear area B-score, replicate 2: -2.85

Ufd1 [DRSC10607]
- droplet/nuclear area B-score, replicate 1: 1.56
- droplet/nuclear area B-score, replicate 2: 0.948

Hsp70Bb + Hsp70Bbb [DRSC15885]
- droplet/nuclear area B-score, replicate 1: -0.256
- droplet/nuclear area B-score, replicate 2: -0.0901
- droplet/nuclear area B-score, replicate 3: 1.18

Part of the list above, reformatted:
{"Target gene": "Fntb", "DRSC id": "DRSC15244", "droplet/nuclear area B-score, replicate 1": -0.524, "droplet/nuclear area B-score, replicate 2": 0.411}
{"Target gene": "Gr59a", "DRSC id": "DRSC21550", "droplet/nuclear area B-score, replicate 1": -2.08, "droplet/nuclear area B-score, replicate 2": 0.674}
{"Target gene": "Cpr66Cb", "DRSC id": "DRSC10769", "droplet/nuclear area B-score, replicate 1": 0.491, "droplet/nuclear area B-score, replicate 2": 1.99}
{"Target gene": "CG32191", "DRSC id": "DRSC10522", "droplet/nuclear area B-score, replicate 1": 1.74, "droplet/nuclear area B-score, replicate 2": 2.44}
{"Target gene": "Pcif1", "DRSC id": "DRSC11655", "droplet/nuclear area B-score, replicate 1": 0.273, "droplet/nuclear area B-score, replicate 2": 1.12, "droplet/nuclear area B-score, replicate 3": 1.62}

The list goes on:
mre11 [DRSC03570]
- droplet/nuclear area B-score, replicate 1: 1.2
- droplet/nuclear area B-score, replicate 2: 0.906
- droplet/nuclear area B-score, replicate 3: -0.502

mre11 [DRSC22628]
- droplet/nuclear area B-score, replicate 1: -0.61
- droplet/nuclear area B-score, replicate 2: -1.8

CG30384 [DRSC06032]
- droplet/nuclear area B-score, replicate 1: -0.898
- droplet/nuclear area B-score, replicate 2: -0.659

Rcd6 [DRSC06054]
- droplet/nuclear area B-score, replicate 1: 1.79
- droplet/nuclear area B-score, replicate 2: 0.318

sau [DRSC00694]
- droplet/nuclear area B-score, replicate 1: 1.07
- droplet/nuclear area B-score, replicate 2: -1.35

CG10384 [DRSC03933]
- droplet/nuclear area B-score, replicate 1: -0.531
- droplet/nuclear area B-score, replicate 2: -0.982

CG10384 [DRSC04067]
- droplet/nuclear area B-score, replicate 1: 5.32
- droplet/nuclear area B-score, replicate 2: -1.42

Dis3 [DRSC16034]
- droplet/nuclear area B-score, replicate 1: 0.561
- droplet/nuclear area B-score, replicate 2: 0.273

Surf4 [DRSC16875]
- droplet/nuclear area B-score, replicate 1: -0.854
- droplet/nuclear area B-score, replicate 2: 0.2

temp [DRSC18271]
- droplet/nuclear area B-score, replicate 1: 0.812
- droplet/nuclear area B-score, replicate 2: 1.37

CG3124 [DRSC04339]
- droplet/nuclear area B-score, replicate 1: 0.776
- droplet/nuclear area B-score, replicate 2: 0.124

CG3124 [DRSC23062]
- droplet/nuclear area B-score, replicate 1: 0.153
- droplet/nuclear area B-score, replicate 2: 0.851

Uxs [DRSC10941]
- droplet/nuclear area B-score, replicate 1: -2.69
- droplet/nuclear area B-score, replicate 2: -0.673

CG14326 [DRSC14805]
- droplet/nuclear area B-score, replicate 1: 1.2
- droplet/nuclear area B-score, replicate 2: -0.707

Parg [DRSC18696]
- droplet/nuclear area B-score, replicate 1: -1.03

ara [DRSC11322]
- droplet/nuclear area B-score, replicate 1: -1.16
- droplet/nuclear area B-score, replicate 2: -1.18

ara [DRSC22984]
- droplet/nuclear area B-score, replicate 1: 0.499
- droplet/nuclear area B-score, replicate 2: -0.994

Lcp65Aa [DRSC11209]
- droplet/nuclear area B-score, replicate 2: -0.094

lncRNA:bxd [DRSC13176]
- droplet/nuclear area B-score, replicate 1: -1.03
- droplet/nuclear area B-score, replicate 2: -0.355

E(spl)m7-HLH [DRSC16696]
- droplet/nuclear area B-score, replicate 1: -0.738
- droplet/nuclear area B-score, replicate 2: -0.394

Spn28Da [DRSC02162]
- droplet/nuclear area B-score, replicate 1: -0.923
- droplet/nuclear area B-score, replicate 2: 0.567

CG3942 [DRSC15525]
- droplet/nuclear area B-score, replicate 1: -1.13
- droplet/nuclear area B-score, replicate 2: -0.0654

grn [DRSC16961]
- droplet/nuclear area B-score, replicate 1: 0.501
- droplet/nuclear area B-score, replicate 2: -0.931

CG14397 [DRSC02381]
- droplet/nuclear area B-score, replicate 1: 1.55
- droplet/nuclear area B-score, replicate 2: 0.0149

lbm [DRSC07643]
- droplet/nuclear area B-score, replicate 1: 1.13
- droplet/nuclear area B-score, replicate 2: 1.3

CG14627 [DRSC18630]
- droplet/nuclear area B-score, replicate 1: 0.459
- droplet/nuclear area B-score, replicate 2: 0.275

rtp [DRSC12132]
- droplet/nuclear area B-score, replicate 1: 2.31
- droplet/nuclear area B-score, replicate 2: -0.0589

Ror [DRSC03414]
- droplet/nuclear area B-score, replicate 1: 1.49
- droplet/nuclear area B-score, replicate 2: 0.13

noc [DRSC03580]
- droplet/nuclear area B-score, replicate 1: 0.934
- droplet/nuclear area B-score, replicate 2: 0.0681

Pgam5-2 [DRSC04278]
- droplet/nuclear area B-score, replicate 1: 0.651
- droplet/nuclear area B-score, replicate 2: -0.18

Diap1 [DRSC11404]
- droplet/nuclear area B-score, replicate 1: -4.44
- droplet/nuclear area B-score, replicate 2: -2.89
- droplet/nuclear area B-score, replicate 3: 0.0868

cni [DRSC03512]
- droplet/nuclear area B-score, replicate 1: -2.65
- droplet/nuclear area B-score, replicate 2: -1.88

CG6700 [DRSC02980]
- droplet/nuclear area B-score, replicate 1: -2.06
- droplet/nuclear area B-score, replicate 2: -1.6

CG3734 [DRSC15509]
- droplet/nuclear area B-score, replicate 1: 0.813
